Taken from: PubChem BioAssay AID720505 (Drosophila RNAi Screening Center, 2013)
Screen: 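Knock-downs that reduce calcium influx once internal stores are emptied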 (primary screen). Cells: Drosophila S2R+ cells. Reagents: long dsRNA against Drosophila genes. Treatment: thapsigargin (2 µM) in calcium-free buffer to empty internal stores, then 2 mM calcium added back. Read-out: 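Stores emptied by 2 µM thapsigargin without calcium, then 2 mM calcium re-added; fluo-4 fluorescence followed by FLIPR in 384-well plates, per-well averaged endpoint, raw; two screen passes, some wells retested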. Scale: calcium signal and retest calcium signal: higher = more calcium entry after store depletion. Call rule: 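About 1500 genes called as lowering calcium entry, by varying amounts, judged against per-plate control wells with STIM1 as positive and Rho1 as negative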. Calls: active = called as lowering calcium entry; inactive = not called.
The screen tested about 20,000 reagents; shown is a random part of those that have a named target and a result. Over the whole deposit, about 2,100 (10%) are marked active. 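Raw plate signals without normalisation; calls rest on control-based scores that were not deposited; replicate 2 separates called from uncalled poorly.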 Not given: the amount of reagent, the time to read-out.

Knock-down of CG8072 (GeneID 39181) [DRSC10960] came out at: calcium signal, replicate 1 = 88.5; calcium signal, replicate 2 = 91.9; active.
After knock-down of CG3306 (GeneID 39116) [DRSC10357] the results were calcium signal, replicate 1 = 56.6; calcium signal, replicate 2 = 79; active.
RpL23A (GeneID 38208) [DRSC08694] scored calcium signal, replicate 1 = 136; calcium signal, replicate 2 = 84.8; inactive.
After knock-down of RpL23A (GeneID 38208) [DRSC22035], the screen gave calcium signal, replicate 1 = 96.7; calcium signal, replicate 2 = 244; inactive.
For SCAR (GeneID 34519) [DRSC03426], the values are calcium signal, replicate 1 = 139; calcium signal, replicate 2 = 168; inactive.
Sf3b2 (GeneID 33514) [DRSC00619] gave calcium signal, replicate 1 = 55.8; calcium signal, replicate 2 = 97.2; active.
Faa (GeneID 45577) [DRSC08451] gave calcium signal, replicate 1 = 98.2; calcium signal, replicate 2 = 73; inactive.
With knock-down of CG7246 (GeneID 31833) [DRSC18422] the results were calcium signal, replicate 1 = 168; calcium signal, replicate 2 = 178; inactive.
Against Hsp27 (GeneID 39078) [DRSC11190] the deposit lists calcium signal, replicate 1 = 86.4; calcium signal, replicate 2 = 107; inactive.
For mmm (GeneID 38851) [DRSC10208] the deposit lists calcium signal, replicate 1 = 95.6; calcium signal, replicate 2 = 73.2; inactive.
Silencing of CG13625 (GeneID 42931) [DRSC14627] came out at: calcium signal, replicate 1 = 171; calcium signal, replicate 2 = 191; inactive.
Polr1B (GeneID 33210) [DRSC00780] gave calcium signal, replicate 1 = 71.9; calcium signal, replicate 2 = 138; inactive.
After knock-down of Spn42Dc (GeneID 35600) [DRSC05010], the record shows calcium signal, replicate 1 = 76.5; calcium signal, replicate 2 = 81; inactive.
CG31636 (GeneID 318865) [DRSC02276] scored calcium signal, replicate 1 = 110; calcium signal, replicate 2 = 131; inactive.
Against CG42458 (GeneID 2768945) [DRSC10335], the entry reads calcium signal, replicate 1 = 81.5; calcium signal, replicate 2 = 103; inactive.
Depletion of CG42458 (GeneID 2768945) [DRSC23129] gave: calcium signal, replicate 1 = 87.8; calcium signal, replicate 2 = 121; inactive.
CG42458 (GeneID 2768945) [DRSC23261] showed calcium signal, replicate 1 = 136; calcium signal, replicate 2 = 111; inactive.
Against bun (GeneID 34665) [DRSC01253], the values are calcium signal, replicate 1 = 164; calcium signal, replicate 2 = 84.5; inactive.
With knock-down of bun (GeneID 34665) [DRSC01255], the record shows calcium signal, replicate 1 = 237; calcium signal, replicate 2 = 92.5; inactive.
After knock-down of bun (GeneID 34665) [DRSC03500] the results were calcium signal, replicate 1 = 111; calcium signal, replicate 2 = 156; inactive.
bun (GeneID 34665) [DRSC23041] showed calcium signal, replicate 1 = 104; calcium signal, replicate 2 = 143; inactive.
Sesn (GeneID 37755) [DRSC04101] showed calcium signal, replicate 1 = 179; calcium signal, replicate 2 = 74.3; inactive.
Sesn (GeneID 37755) [DRSC04102] scored calcium signal, replicate 1 = 133; calcium signal, replicate 2 = 142; inactive.
Sesn (GeneID 37755) [DRSC04103] gave calcium signal, replicate 1 = 155; calcium signal, replicate 2 = 206; inactive.
Knock-down of CG18599 (GeneID 42191) [DRSC15357] resulted in: calcium signal, replicate 1 = 153; calcium signal, replicate 2 = 122; retest calcium signal, replicate 1 = 11451; retest calcium signal, replicate 2 = 152; inactive.
CG18599 (GeneID 42191) [DRSC22585] gave calcium signal, replicate 1 = 82.2; calcium signal, replicate 2 = 71.5; active.
With knock-down of CG18599 (GeneID 42191) [DRSC23121] the results were calcium signal, replicate 1 = 128; calcium signal, replicate 2 = 141; inactive.
Against CG14644 (GeneID 40536) [DRSC12230], the values are calcium signal, replicate 1 = 102; calcium signal, replicate 2 = 147; inactive.
For CG13862 (GeneID 42610) [DRSC14712], the values are calcium signal, replicate 1 = 277; calcium signal, replicate 2 = 160; inactive.
Dscam4 (GeneID 2769008) [DRSC08913] showed inactive.
Dscam4 (GeneID 2769008) [DRSC10031] gave calcium signal, replicate 1 = 67.9; calcium signal, replicate 2 = 50.5; inactive.
Dscam4 (GeneID 2769008) [DRSC10329] scored calcium signal, replicate 1 = 62.7; calcium signal, replicate 2 = 39.5; active.
Against Dscam4 (GeneID 2769008) [DRSC10765], the entry reads calcium signal, replicate 1 = 102; calcium signal, replicate 2 = 86.5; inactive.
Against Hsp68 (GeneID 42852) [DRSC16712], the values are calcium signal, replicate 1 = 204; calcium signal, replicate 2 = 188; inactive.
Depletion of CG5770 (GeneID 37054) [DRSC06954] came out at: calcium signal, replicate 1 = 114; calcium signal, replicate 2 = 110; inactive.

Individual results from the entries so far:
bun (GeneID 34665) [DRSC01255], calcium signal, replicate 2: 92.5
Entry for RpL23A (GeneID 38208) [DRSC22035] in “calcium signal, replicate 1”: 96.7
Sesn (GeneID 37755) [DRSC04102], Outcome = inactive
Result of CG3306 (GeneID 39116) [DRSC10357] in “calcium signal, replicate 1”: 56.6
Result for Hsp68 (GeneID 42852) [DRSC16712] in “calcium signal, replicate 1”: 204
